Reference: PubChem BioAssay AID1224828 (NIAID, 2016)
Aim: 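Regulators linking TLR4 signalling to p65 nuclear translocation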 (primary screen). Cell system: mouse RAW264.7 G9 macrophage reporter cells (GFP-p65, Tnf promoter-mCherry). Reagents: siRNA pool against mouse genes, 100 nM. Time to read-out: 2 days siRNA transfection, then 40 min LPS before fixation. Challenge: LPS (Salmonella minnesota R595) at 10 ng/ml. Read-out: 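Imaged p65 nuclear translocation ratio, normalised to the plate median, converted to robust z-scores and averaged across two replicates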. Scale: p65 translocation robust z-score: higher = more nuclear NF-kappaB p65 after LPS than the plate median; nuclear/cytoplasmic p65 ratio: higher = more nuclear NF-kappaB p65. Active means: 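Active if robust z is above 3.3 (negative regulators) or below -1.56, the Tlr4 control median (positive regulators); activity score 50 or more; control wells not called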. Calls: active = hit (p65 shift raised or lowered); inactive = no clear change.
Shown is one part, drawn at random, of about 17,000 deposited reagents. 762 of them (4.5%) count as active. 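Active calls include both raised and lowered p65 entry, mostly lowered; wells with fewer than 50 cells lack a z-score.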 Raw values are not corrected between plates. The numbers tell different reagents against one gene apart. A reagent listed more than once was tested more than once; the source does not tell the runs apart.

| Target gene | pool no. | p65 translocation robust z-score | nuclear/cytoplasmic p65 ratio, rep 1 | nuclear/cytoplasmic p65 ratio, rep 2 | low cell count flag | activity call |
| --- | --- | --- | --- | --- | --- | --- |
| Atg4b (autophagy related 4B, cysteine peptidase) | 1 | 0.96 | 1.75 | 1.64 | enough cells to score | inactive |
| Sod3 (superoxide dismutase 3, extracellular) | 1 | 1.67 | 1.64 | 1.95 | enough cells to score | inactive |
| Adam1b (a disintegrin and metallopeptidase domain 1b) | 1 | 0.56 | 1.71 | 1.75 | enough cells to score | inactive |
| Tcea3 (transcription elongation factor A (SII), 3) | 1 | 0.14 | 1.56 | 1.52 | enough cells to score | inactive |
| Ddit3 (DNA-damage inducible transcript 3) | 1 | 0.96 | 1.61 | 1.5 | enough cells to score | inactive |
| Mrto4 (mRNA turnover 4, ribosome maturation factor) | 1 | 0.41 | 1.46 | 1.66 | enough cells to score | inactive |
| Cd164 (CD164 antigen) | 1 | 0.03 | 1.39 | 1.38 | enough cells to score | inactive |
| Rab2b (RAB2B, member RAS oncogene family) | 1 | -0.99 | 1.44 | 1.28 | enough cells to score | inactive |
| Zfp639 (zinc finger protein 639) | 1 | – | 1.33 | 1.65 | fewer than 50 cells per well; well left out of scoring | inactive |
| Igfbpl1 (insulin-like growth factor binding protein-like 1) | 1 | -1.83 | 1.34 | 1.14 | enough cells to score | active |
| Mrpl38 (mitochondrial ribosomal protein L38) | 1 | 0.32 | 1.9 | 1.58 | enough cells to score | inactive |
| Sh3pxd2a (SH3 and PX domains 2A) | 1 | -0.45 | 1.49 | 1.48 | enough cells to score | inactive |
| Sh3pxd2a (SH3 and PX domains 2A) | 2 | – | 2.12 | 1.7 | fewer than 50 cells per well; well left out of scoring | inactive |
| Has1 (hyaluronan synthase 1) | 1 | 1.1 | 1.85 | 1.67 | enough cells to score | inactive |
| Ell3 (elongation factor RNA polymerase II-like 3) | 1 | – | 1.21 | 1.19 | fewer than 50 cells per well; well left out of scoring | inactive |
| Tenm1 (teneurin transmembrane protein 1) | 1 | 0 | 1.75 | 1.5 | enough cells to score | inactive |
| Gm15850 (predicted gene 15850) | 1 | 1.82 | 1.69 | 1.78 | enough cells to score | inactive |
| Kcnk1 (potassium channel, subfamily K, member 1) | 1 | -1.25 | 1.33 | 1.3 | enough cells to score | inactive |
| Usp18 (ubiquitin specific peptidase 18) | 1 | 0.29 | 1.5 | 1.59 | enough cells to score | inactive |
| Fcsk (fucose kinase) | 1 | 1.13 | 1.94 | 1.47 | enough cells to score | inactive |
| Ppp1r12c (protein phosphatase 1, regulatory subunit 12C) | 1 | -0.75 | 1.37 | 1.33 | enough cells to score | inactive |
| Slc17a7 | 1 | – | 0.941 | 1.02 | fewer than 50 cells per well; well left out of scoring | inactive |
| Ncan (neurocan) | 1 | -1.32 | 1.42 | 1.53 | enough cells to score | inactive |
| Pcdhb17 (protocadherin beta 17) | 1 | -1 | 1.34 | 1.13 | enough cells to score | inactive |
| Mapk8 (mitogen-activated protein kinase 8) | 1 | 0.34 | 1.94 | 1.42 | enough cells to score | inactive |
| Mylk2 (myosin, light polypeptide kinase 2, skeletal muscle) | 1 | 0.2 | 1.91 | 1.4 | enough cells to score | inactive |
| Slc6a14 | 1 | – | 1.26 | 1.21 | fewer than 50 cells per well; well left out of scoring | inactive |
| Fbxw21 (F-box and WD-40 domain protein 21) | 1 | 1.65 | 1.6 | 1.57 | enough cells to score | inactive |
| Anapc4 (anaphase promoting complex subunit 4) | 1 | -0.08 | 1.63 | 1.58 | enough cells to score | inactive |
| Kcnk18 (potassium channel, subfamily K, member 18) | 1 | 2.47 | 2 | 1.92 | enough cells to score | inactive |
| Alpk2 (alpha-kinase 2) | 1 | 1.06 | 2.1 | 1.32 | enough cells to score | inactive |
| Ca6 (carbonic anhydrase 6) | 1 | -1.2 | 1.42 | 1.58 | enough cells to score | inactive |
| Ammecr1l (AMME chromosomal region gene 1-like) | 1 | -2.77 | 1.11 | 0.997 | enough cells to score | active |
| Gas2l1 (growth arrest-specific 2 like 1) | 1 | 0.09 | 1.69 | 1.57 | enough cells to score | inactive |
| Lrrcc1 (leucine rich repeat and coiled-coil domain containing 1) | 1 | -0.09 | 1.45 | 1.34 | enough cells to score | inactive |
| Slc37a2 | 1 | 0.32 | 1.44 | 1.29 | enough cells to score | inactive |
| Crnkl1 (crooked neck pre-mRNA splicing factor 1) | 1 | -1.98 | 1.35 | 1.46 | enough cells to score | active |
| Brwd1 (bromodomain and WD repeat domain containing 1) | 1 | 0.99 | 1.62 | 1.78 | enough cells to score | inactive |
| Efemp1 | 1 | 1.64 | 1.73 | 1.56 | enough cells to score | inactive |
| Cyp21a1 (cytochrome P450, family 21, subfamily a, polypeptide 1) | 1 | 0.14 | 1.56 | 1.34 | enough cells to score | inactive |
| Tas2r136 (taste receptor, type 2, member 136) | 1 | -0.88 | 1.25 | 1.11 | enough cells to score | inactive |
| Or5b24 (olfactory receptor family 5 subfamily B member 24) | 1 | -0.63 | 1.51 | 1.45 | enough cells to score | inactive |
| Lrrc39 (leucine rich repeat containing 39) | 1 | 0.29 | 1.45 | 1.6 | enough cells to score | inactive |
| Hgs (HGF-regulated tyrosine kinase substrate) | 1 | 1.4 | 1.9 | 1.71 | enough cells to score | inactive |
| Bcl10 (B cell leukemia/lymphoma 10) | 1 | 0.76 | 1.64 | 1.81 | enough cells to score | inactive |
| Obox1 (oocyte specific homeobox 1) | 1 | 0.79 | 1.89 | 1.6 | enough cells to score | inactive |
| Ccpg1 (cell cycle progression 1) | 1 | 1.61 | 1.76 | 1.51 | enough cells to score | inactive |
| Or5d37 (olfactory receptor family 5 subfamily D member 37) | 1 | -0.99 | 1.51 | 1.43 | enough cells to score | inactive |
| Usp8 (ubiquitin specific peptidase 8) | 1 | -0.4 | 1.44 | 1.46 | enough cells to score | inactive |
| Clca3b (chloride channel accessory 3B) | 1 | 0.37 | 1.77 | 1.72 | enough cells to score | inactive |
| Gria4 (glutamate receptor, ionotropic, AMPA4 (alpha 4)) | 1 | 0.02 | 1.43 | 1.38 | enough cells to score | inactive |
| Or2n1 (olfactory receptor family 2 subfamily N member 1) | 1 | -0.93 | 1.49 | 1.29 | enough cells to score | inactive |
| Supt4b (SPT4B, DSIF elongation factor subunit) | 1 | -2.18 | 1.09 | 0.985 | enough cells to score | active |
| Sdc2 (syndecan 2) | 1 | -0.42 | 1.41 | 1.13 | enough cells to score | inactive |
| Nudt1 (nudix hydrolase 1) | 1 | -0.14 | 1.3 | 1.51 | enough cells to score | inactive |
| Spry4 (sprouty RTK signaling antagonist 4) | 1 | – | 1.5 | 1.18 | fewer than 50 cells per well; well left out of scoring | inactive |
| Herc2 (HECT and RLD domain containing E3 ubiquitin protein ligase 2) | 1 | 1.18 | 1.5 | 1.62 | enough cells to score | inactive |
| Hmgb3 (high mobility group box 3) | 1 | -0.97 | 1.31 | 1.25 | enough cells to score | inactive |
| Bdkrb2 (bradykinin receptor, beta 2) | 1 | -0.13 | 1.78 | 1.28 | enough cells to score | inactive |
| Bdkrb2 (bradykinin receptor, beta 2) | 1 | -0.81 | 1.37 | 1.49 | enough cells to score | inactive |
